## Assay results

Source: PubChem BioAssay AID1159506 (NCATS, 2015).

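Luminescence from an EWS-FLI1 target-promoter (NR0B1) reporter, set against a CMV-promoter reporter, two days after silencing single genes in TC32 Ewing sarcoma cells.
Each siRNA was applied at 20 nM.
A z-score of the log NR0B1-over-CMV signal, less the median of siRNAs with the same seed; more negative means a stronger specific loss of the NR0B1 reporter.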

This is part of the screen; most of the strongest results are not listed here.
Sequences are the guide (antisense) strand, without overhang.

* UAACUAAGGAACACGUUCU against VSIG8 : seed-corrected z-score -0.4624
* UCUAUCCACAAUACGUAGC against ASAH2B : seed-corrected z-score -0.7267
* UACAAUACCCAGGAAAGUG against ALDH3A2 : seed-corrected z-score -0.518
* UUCUUGAUUGCGAACGACC against CFAP221 : seed-corrected z-score 0.02938
* AGCUUAUCCGCAGCCUUCC against S100A16 : seed-corrected z-score -1.525
* UGCCUAAUAAGUUUAUAGC against ZNF180 : seed-corrected z-score -0.484
* AAACGUAUACUUUACAGAG against NCOR1P1 : seed-corrected z-score -0.5445
* UUUGUAGUUUCUGAAUACC against GNPAT : seed-corrected z-score -0.3774
* AGCUGGUACAGUGAAACGA against GYPB : seed-corrected z-score -0.05457
* AGAGGUAUCAAGACGUGAC against ACAD8 : seed-corrected z-score -0.5237
* AAUGUUUCCGAGGCUGACU against SH2D5 : seed-corrected z-score -0.214
* AUCAAUAAAAGUGACCUCC against ATP6AP1L : seed-corrected z-score 0.01281
* AGCAGGACCACGUAAGUUG against LOC727944 : seed-corrected z-score 1.229
* UAUGGUCAAAUGGUCUUCU against MAFG : seed-corrected z-score -0.2949
* UUUCGUAUACCAGUUCCUU against FSHB : seed-corrected z-score 1.097
* AAGAGUCUGAGGAAUAGGC against CSN2 : seed-corrected z-score 1.816
* UUUUUCUCCACGUGGAAUA against CD44 : seed-corrected z-score 0.2934
* UUUGUGAUGUAGUUCAUGC against CRTAM : seed-corrected z-score 0.04394
* UUUUACCCAAGAGUUUUUC against OR4A5 : seed-corrected z-score 0.2075
* UAUUCGACUAUCAUCAUAC against MAP3K2 : seed-corrected z-score 1.072
* UAAUGUUCAGGGUCAGCUC against ITGAE : seed-corrected z-score -0.5436
* UACCGAUGUUGGAACAUGG against RLF : seed-corrected z-score 0.4642
* UUAUUAAACAGUCUCUCGG against ARRDC2 : seed-corrected z-score 0.3668
* AAUGAGCCCAUCCAUAGUG against MRPS21 : seed-corrected z-score 0.8535
* UCUUUGUUGGGUGCGCACC against LRRC38 : seed-corrected z-score 1.444
* UAUCUGAAACGACUGAAUG against ZNF443 : seed-corrected z-score 0.6439
* AUUCGGACAGUCCAUUUCC against CTTNBP2 : seed-corrected z-score 0.4739
* UCCUUUCACACCGUAAGUG against SOX5 : seed-corrected z-score 0.06821
* UCCGUUGUAAACAUCUAGC against ACPP : seed-corrected z-score -0.5666
* UUCGUGACACUGAAACCCG against SLC38A8 : seed-corrected z-score 0.564
* UUAAGCAUCAGGCUGUAGG against LCE2B : seed-corrected z-score -0.1694
* ACUGGUACCAUGCAGUCUC against MAD2L1BP : seed-corrected z-score -0.1297
* AAAUGUGCUAUUUGGACAG against ZNF619 : seed-corrected z-score 0.1561
* UCAGUGACCGAAAUGGGAG against C8orf49 : seed-corrected z-score -0.5323
* UGCAAUUUCAGCAUCCUGC against S100A6 : seed-corrected z-score -0.8642
* UUCUUCACCGCAGUCACCG against ILVBL : seed-corrected z-score 0.2897
* UUCCCGAUCUGGUAGUUCC against MYO9B : seed-corrected z-score -0.6438
* AGUACUAUCAAAGUGAACC against CLCA4 : seed-corrected z-score 0.6498
* UUGACUUCACUUGUCUUGC against CNBP : seed-corrected z-score -0.5366
* AUUCAGGAAAGUAAGGUGG against TMEM171 : seed-corrected z-score 1.06
* UUUGAUGCGCUCUUGGUCU against JUNB : seed-corrected z-score 0.02497
* AUUCUUCUCAGUAGAGCUG against MUC1 : seed-corrected z-score 1.321
* AAAGGAUGAAGAACCGUCG against MPRIP : seed-corrected z-score 0.6933
* AACAUGUGCACGUAGAGGG against MC3R : seed-corrected z-score 1.558
* UUUCCUAGCAGCGUGAGGC against CHRD : seed-corrected z-score 1.481
* UACCAGACAACCAUUCCAG against SERTAD1 : seed-corrected z-score 0.05792
* AUCGGGUUCAGUAACAAUC against FAM104B : seed-corrected z-score 1.115
* CCAUGGCCCUGAAUUGAGC against PRR33 : seed-corrected z-score -0.5375
* UUCAUACUGCUGUCUGUGC against TBC1D14 : seed-corrected z-score -0.3945

4 of the entries, repeated:

siRNA	target gene	seed-corrected z-score
AAGAGUCUGAGGAAUAGGC	CSN2	1.816
AGCUUAUCCGCAGCCUUCC	S100A16	-1.525
UUAUUAAACAGUCUCUCGG	ARRDC2	0.3668
UCCGUUGUAAACAUCUAGC	ACPP	-0.5666